# Data taken from publication PMC8593051.
# T1: WDR63 (endogenous, mouse testicular extracts) (mouse (endogenous in testis)) (UniProt B2RY71)
# T1 sequence: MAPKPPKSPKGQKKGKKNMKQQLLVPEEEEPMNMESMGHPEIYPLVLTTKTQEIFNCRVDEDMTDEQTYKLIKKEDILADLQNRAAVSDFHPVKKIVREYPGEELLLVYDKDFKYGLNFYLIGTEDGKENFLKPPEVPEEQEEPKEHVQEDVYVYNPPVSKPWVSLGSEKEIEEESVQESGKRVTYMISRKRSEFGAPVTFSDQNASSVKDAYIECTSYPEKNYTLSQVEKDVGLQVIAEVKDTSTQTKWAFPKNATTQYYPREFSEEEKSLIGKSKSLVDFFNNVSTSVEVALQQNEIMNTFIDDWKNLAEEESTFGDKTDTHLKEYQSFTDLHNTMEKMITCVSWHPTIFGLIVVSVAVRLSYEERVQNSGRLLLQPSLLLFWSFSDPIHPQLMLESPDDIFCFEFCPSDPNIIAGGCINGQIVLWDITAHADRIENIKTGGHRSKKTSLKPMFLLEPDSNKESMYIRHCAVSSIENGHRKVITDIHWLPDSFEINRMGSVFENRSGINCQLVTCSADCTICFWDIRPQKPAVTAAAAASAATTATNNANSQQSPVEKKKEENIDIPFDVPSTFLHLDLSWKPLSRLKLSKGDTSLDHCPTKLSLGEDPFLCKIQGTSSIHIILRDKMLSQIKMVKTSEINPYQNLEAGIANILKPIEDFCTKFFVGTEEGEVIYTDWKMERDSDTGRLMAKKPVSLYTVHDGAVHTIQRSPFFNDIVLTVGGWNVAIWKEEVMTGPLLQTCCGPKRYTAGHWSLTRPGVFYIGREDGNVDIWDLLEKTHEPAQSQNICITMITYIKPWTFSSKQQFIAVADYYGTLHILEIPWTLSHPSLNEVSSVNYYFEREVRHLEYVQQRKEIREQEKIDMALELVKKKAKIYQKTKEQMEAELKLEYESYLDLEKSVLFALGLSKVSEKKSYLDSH
# B1: WDR78 (endogenous, mouse testicular extracts) (protein, UniProt E9PYY5 1-807)
# chain: MHSSPTSTRKQASFAASASAQPRKSISFINPSKSSAGKGYAASNPNKLAVSRTMGFLTDMKPAEKLNVPSAKTVQVLDSKGVDVTPRPLYHPDPHAASAKPNKLLTSQEGSLGSDYISSYSLYQNTLNPSMLGQYTRSVLGSSSVSKSSISTTESMSEDLEDSSYKRDRLASFTDVRVLRSTAEAAISKEELEKTIEIILTETETLRFFDLPTVMFSTESEEAEKIIEKNKKYETLCRNRLGNDLYVERMMQTFNGAPKNKEVQCEKIILEEKGVVATTWDLYDSYNIPETLLAAKRSGYSSKGSLPAKDRDPKIQDSESSSLMDIENVILAKVQEDEEDNSEAILKSDKLHQDLFYMERVLMENVFQPKLAAYRQLPVYKEHEPEEPEETLQVENLKVAEDEPKKEDEEEVEMELELEIATEQSTIPANLERLWSFSCDLTKGLNVSSLSWNKANPDLLAVGYGNFGFREQKKGMACCWSIKNPMWPERIYQSSYGVTSVDFSNSSPNLLAVGYHNGTVAIYNVQSSHNIPVLDSSESPQKHLGPVWQVQWIEQDRGTTGDDKREILVSISADGRISKWIIRKGLDCHDLMRLKRTTATGGKKGGEKEKKGEALISRQAPGMCFAFHPKDTNIYLAGTEEGLIHKCSCSYNEQYLETYRGHKGPVYKVTWNPFCPDVFLSCSADWGVMIWHQDTVKPFLSFYPTTYVVYDVSWSPKSAYIFAAANENRVEIWDLQISTLDPLIVNVANPGIKFTTVLFAKETDCLLVGDSDGQVAVYELRNMPTASDTSRGDVINILLGPKTNHTG
# Target: T1, WDR63 (endogenous, mouse testicular extracts) (mouse (endogenous in testis))
# Test: affinity purification with mass spectrometry; immunoprecipitation with testicular extracts using anti-WDR63 antibodies, mass spectrometric analysis
binder,measurement,value
B1,binding,binds

# No constants are given. Whether binding was seen depends on the method and setting. In cells and extracts the contact can be indirect. A yes stands for co-enrichment or nearness to the bait. Other partners may have been found.
